The supplement of paper PMC10849652
Some of the results follow.

Chains of the proteins cited; added tags and fusions are not shown. Lines headed by an entry give the natural chain unless they say otherwise; changes in a name come on top.
UniProt A8K2U0: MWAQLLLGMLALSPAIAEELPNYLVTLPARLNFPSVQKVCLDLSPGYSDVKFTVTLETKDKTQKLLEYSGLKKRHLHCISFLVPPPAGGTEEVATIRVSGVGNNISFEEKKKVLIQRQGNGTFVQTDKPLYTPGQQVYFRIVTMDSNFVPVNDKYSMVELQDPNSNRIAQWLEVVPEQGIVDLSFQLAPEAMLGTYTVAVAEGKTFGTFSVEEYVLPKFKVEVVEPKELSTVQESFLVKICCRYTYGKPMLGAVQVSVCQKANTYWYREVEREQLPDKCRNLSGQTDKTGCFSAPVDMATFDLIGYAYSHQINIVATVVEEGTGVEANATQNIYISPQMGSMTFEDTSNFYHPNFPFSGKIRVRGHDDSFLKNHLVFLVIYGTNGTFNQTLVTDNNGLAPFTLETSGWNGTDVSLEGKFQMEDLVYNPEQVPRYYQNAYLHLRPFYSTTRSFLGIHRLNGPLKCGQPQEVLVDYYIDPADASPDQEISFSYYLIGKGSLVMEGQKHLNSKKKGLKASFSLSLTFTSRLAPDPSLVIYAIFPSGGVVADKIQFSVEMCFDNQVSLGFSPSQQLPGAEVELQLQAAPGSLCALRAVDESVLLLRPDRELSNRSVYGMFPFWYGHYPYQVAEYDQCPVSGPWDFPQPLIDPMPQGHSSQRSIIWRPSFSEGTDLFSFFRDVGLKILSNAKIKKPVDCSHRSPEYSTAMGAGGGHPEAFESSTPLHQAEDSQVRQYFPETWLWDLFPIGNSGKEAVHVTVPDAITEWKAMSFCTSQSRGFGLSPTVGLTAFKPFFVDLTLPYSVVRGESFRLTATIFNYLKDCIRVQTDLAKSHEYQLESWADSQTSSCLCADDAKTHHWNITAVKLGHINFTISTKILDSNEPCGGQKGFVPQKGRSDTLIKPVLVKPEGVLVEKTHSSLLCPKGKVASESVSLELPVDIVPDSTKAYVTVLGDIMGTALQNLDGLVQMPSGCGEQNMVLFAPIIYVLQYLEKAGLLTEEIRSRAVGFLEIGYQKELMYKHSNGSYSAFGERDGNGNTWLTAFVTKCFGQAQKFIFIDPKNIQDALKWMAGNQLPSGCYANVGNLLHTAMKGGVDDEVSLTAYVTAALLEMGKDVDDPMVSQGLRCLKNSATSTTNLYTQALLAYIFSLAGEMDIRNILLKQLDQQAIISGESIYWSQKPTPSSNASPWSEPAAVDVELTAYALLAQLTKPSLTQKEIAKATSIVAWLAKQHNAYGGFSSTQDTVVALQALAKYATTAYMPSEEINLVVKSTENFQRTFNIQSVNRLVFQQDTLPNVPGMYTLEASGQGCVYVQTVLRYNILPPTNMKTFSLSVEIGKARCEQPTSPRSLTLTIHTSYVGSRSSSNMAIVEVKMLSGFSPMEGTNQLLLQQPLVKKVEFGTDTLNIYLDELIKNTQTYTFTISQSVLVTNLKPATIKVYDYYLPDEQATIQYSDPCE
UniProt Q8TB40: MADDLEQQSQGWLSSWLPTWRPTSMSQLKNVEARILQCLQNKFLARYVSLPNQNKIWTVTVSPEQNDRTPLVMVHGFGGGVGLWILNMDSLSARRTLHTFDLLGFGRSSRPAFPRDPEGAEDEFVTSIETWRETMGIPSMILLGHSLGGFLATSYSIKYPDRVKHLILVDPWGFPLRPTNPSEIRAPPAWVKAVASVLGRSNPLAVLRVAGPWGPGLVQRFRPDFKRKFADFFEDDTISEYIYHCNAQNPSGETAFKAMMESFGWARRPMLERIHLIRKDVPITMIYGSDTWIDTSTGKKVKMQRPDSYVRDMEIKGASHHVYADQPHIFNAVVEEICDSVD
UniProt P78325: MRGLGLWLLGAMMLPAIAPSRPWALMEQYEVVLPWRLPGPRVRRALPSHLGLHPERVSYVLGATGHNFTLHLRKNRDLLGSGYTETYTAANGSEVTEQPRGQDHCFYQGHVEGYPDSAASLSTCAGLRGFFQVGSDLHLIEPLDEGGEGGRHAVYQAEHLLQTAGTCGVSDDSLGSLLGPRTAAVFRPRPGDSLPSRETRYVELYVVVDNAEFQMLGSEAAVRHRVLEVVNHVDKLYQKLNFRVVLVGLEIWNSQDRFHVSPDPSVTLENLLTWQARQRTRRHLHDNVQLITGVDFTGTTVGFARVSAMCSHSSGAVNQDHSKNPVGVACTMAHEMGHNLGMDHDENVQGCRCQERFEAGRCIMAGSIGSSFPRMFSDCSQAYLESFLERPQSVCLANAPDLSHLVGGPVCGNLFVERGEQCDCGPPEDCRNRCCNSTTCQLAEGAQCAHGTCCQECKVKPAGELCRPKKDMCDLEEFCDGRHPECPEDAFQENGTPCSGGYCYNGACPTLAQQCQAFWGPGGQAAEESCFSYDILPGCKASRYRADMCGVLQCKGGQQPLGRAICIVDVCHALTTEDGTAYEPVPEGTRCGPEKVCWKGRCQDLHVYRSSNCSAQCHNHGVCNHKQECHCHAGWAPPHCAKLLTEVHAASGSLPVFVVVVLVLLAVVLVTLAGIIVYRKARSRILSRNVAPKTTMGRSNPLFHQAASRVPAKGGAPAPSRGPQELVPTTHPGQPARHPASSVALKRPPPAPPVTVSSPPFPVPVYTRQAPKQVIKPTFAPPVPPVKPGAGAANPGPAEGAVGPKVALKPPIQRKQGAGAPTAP
UniProt Q9BTE6: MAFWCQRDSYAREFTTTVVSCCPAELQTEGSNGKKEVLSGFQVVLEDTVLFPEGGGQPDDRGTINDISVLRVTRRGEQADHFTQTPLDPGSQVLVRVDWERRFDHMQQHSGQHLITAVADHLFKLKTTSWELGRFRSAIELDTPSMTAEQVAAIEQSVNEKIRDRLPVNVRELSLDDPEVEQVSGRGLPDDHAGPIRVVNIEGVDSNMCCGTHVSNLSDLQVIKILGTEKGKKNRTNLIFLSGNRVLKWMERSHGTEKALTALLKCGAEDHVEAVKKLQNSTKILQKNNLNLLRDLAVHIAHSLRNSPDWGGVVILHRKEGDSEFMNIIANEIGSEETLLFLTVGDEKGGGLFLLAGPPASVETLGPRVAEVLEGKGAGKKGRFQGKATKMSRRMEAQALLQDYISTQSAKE
UniProt Q96QU6: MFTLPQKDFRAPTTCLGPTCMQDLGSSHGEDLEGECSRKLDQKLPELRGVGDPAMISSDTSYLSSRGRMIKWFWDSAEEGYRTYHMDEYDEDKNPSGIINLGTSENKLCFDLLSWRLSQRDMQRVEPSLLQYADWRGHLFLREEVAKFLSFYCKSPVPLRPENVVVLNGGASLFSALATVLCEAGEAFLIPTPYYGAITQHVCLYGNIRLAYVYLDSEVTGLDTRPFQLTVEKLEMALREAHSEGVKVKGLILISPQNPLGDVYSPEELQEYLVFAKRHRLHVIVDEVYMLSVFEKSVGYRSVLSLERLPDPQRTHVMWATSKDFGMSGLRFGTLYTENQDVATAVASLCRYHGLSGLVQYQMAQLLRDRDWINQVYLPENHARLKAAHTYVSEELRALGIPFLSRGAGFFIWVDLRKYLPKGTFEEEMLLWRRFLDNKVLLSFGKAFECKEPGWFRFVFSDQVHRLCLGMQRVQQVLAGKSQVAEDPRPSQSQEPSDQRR
UniProt Q86TW2: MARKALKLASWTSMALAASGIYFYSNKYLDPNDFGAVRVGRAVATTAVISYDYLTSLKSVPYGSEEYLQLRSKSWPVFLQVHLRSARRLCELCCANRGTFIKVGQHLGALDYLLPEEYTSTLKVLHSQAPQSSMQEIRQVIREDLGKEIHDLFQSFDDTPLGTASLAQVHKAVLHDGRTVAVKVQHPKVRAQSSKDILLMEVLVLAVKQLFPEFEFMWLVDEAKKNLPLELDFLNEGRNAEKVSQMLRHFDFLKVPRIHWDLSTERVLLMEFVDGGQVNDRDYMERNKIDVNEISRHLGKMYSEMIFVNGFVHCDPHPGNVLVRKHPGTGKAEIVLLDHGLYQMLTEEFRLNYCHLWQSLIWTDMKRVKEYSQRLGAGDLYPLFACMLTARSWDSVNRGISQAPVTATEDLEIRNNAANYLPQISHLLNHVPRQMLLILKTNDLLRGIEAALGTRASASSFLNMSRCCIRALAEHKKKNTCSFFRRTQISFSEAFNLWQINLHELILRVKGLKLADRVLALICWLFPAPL
UniProt Q8WTS1: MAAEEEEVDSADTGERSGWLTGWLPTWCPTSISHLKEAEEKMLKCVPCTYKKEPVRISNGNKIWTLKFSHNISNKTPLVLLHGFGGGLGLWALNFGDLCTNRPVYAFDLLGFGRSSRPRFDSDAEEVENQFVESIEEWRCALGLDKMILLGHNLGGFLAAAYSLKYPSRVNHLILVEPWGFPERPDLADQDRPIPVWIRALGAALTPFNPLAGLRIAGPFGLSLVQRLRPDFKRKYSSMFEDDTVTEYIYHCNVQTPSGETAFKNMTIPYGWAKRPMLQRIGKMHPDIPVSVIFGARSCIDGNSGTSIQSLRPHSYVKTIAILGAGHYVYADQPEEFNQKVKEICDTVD
UniProt Q6JQN1: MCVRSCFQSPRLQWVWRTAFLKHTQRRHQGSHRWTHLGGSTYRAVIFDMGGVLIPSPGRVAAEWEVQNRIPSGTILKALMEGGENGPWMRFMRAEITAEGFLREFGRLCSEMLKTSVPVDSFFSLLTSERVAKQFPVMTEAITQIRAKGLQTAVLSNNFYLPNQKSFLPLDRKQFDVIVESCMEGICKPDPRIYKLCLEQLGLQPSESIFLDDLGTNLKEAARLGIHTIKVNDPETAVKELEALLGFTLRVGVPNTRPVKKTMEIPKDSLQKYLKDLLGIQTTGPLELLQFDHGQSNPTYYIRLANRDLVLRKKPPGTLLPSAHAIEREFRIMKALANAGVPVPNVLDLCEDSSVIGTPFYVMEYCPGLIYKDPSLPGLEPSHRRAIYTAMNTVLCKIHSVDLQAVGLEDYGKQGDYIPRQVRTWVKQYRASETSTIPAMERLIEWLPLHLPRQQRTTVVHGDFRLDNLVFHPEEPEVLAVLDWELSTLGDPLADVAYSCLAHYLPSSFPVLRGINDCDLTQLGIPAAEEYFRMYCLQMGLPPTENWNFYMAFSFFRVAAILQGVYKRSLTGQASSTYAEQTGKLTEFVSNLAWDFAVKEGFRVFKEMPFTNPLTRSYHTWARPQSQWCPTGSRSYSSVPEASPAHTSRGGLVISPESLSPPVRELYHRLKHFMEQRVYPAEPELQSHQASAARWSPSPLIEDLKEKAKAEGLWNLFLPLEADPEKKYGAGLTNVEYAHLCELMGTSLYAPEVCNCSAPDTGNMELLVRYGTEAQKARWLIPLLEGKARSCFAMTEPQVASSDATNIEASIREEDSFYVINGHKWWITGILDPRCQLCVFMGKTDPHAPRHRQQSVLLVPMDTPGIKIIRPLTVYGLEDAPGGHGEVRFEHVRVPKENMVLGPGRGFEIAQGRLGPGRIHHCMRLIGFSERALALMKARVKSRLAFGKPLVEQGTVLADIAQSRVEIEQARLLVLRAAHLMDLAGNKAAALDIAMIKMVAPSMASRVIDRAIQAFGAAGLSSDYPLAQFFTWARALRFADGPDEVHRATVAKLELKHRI
UniProt Q4L235: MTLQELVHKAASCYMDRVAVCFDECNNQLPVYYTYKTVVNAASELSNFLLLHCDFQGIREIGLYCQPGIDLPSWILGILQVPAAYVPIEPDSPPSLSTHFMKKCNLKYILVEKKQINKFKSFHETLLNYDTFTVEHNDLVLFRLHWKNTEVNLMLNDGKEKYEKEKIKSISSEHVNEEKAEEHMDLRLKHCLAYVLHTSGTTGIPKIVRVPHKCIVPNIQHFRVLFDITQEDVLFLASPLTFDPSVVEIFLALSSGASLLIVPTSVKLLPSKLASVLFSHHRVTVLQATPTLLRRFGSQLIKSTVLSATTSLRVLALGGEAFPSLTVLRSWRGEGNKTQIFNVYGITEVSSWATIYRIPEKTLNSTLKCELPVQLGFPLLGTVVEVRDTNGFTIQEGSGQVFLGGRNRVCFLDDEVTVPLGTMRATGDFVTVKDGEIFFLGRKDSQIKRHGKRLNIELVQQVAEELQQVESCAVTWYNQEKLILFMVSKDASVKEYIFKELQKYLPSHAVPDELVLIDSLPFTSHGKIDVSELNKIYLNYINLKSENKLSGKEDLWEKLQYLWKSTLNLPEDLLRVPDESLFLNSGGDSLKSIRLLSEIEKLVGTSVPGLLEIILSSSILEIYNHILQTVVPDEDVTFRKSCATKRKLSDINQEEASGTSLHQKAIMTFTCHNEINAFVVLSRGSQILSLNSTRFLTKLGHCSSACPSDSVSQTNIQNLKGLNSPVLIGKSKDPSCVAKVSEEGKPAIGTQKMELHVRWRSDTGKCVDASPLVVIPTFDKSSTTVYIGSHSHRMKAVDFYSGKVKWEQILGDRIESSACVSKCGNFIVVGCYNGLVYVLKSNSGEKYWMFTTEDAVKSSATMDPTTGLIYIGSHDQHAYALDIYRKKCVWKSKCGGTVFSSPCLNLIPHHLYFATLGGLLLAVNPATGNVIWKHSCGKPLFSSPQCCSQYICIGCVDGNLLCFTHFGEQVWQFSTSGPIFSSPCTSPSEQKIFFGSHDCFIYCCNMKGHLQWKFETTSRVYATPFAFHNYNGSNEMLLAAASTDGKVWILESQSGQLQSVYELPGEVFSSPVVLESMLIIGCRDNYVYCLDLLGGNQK

These targets were tested with C#Cc1cccc(Nc2ncnc3cc(OCCOC)c(OCCOC)cc23)c1 [erlotinib] (assay: log2 fold change, soluble protein after heating vs DMSO (PISA); higher = thermal stabilisation; K562 cells, 10 uM, 30 min; active = over 0.2 and 3.5 SD of the protein, either way, in both replicates (recomputed)).
Method in brief: (§1)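 Quantification of soluble protein used TMTpro 16plex LC-MS/MS, with channel sums equalised. Samples were the supernatant after 21,000xg for 90 min of pooled aliquots from K562 cells (2×10^6 cells/mL) treated with 10 μM compound for 30 min, heated for 3 min over 48°C-58°C, and extracted in PBS with 0.5% NP-40 at 4°C. Values, from duplicates, describe thermal stability against control samples on a log2 fold-change scale.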

log2 fold change, inactive:
ACTB, A0A2R8YEA7 0.289
ACTR3B (UniProt Q9P1U1) -0.033
ADAD1 (UniProt Q96M93) 0.205
A2ML1 (UniProt A8K2U0) 0.387
ABHD4 (UniProt Q8TB40) 0.16
ADAM8 (UniProt P78325) 0.032
ACTC1 (UniProt P68032) 0.209
AARSD1 (UniProt Q9BTE6) 0.131
ACCS (UniProt Q96QU6) 0.132
ABCB4 (UniProt P21439) 0.164
ADCK1 (UniProt Q86TW2) -0.042
ABHD5 (UniProt Q8WTS1) 0.007
ACAD10 isoform 5 (UniProt Q6JQN1) 0.195
ABHD3 (UniProt Q8WU67) 0.291
ACTB (UniProt E7EVS6) 0.256
ABCB5 (UniProt Q2M3G0) 0.023
ACTG1 (UniProt I3L4N8) -0.176
ACYP2 (UniProt P14621) 0.081
ACSL6 isoform 1 (UniProt Q9UKU0) -0.066
ACSF2 isoform 2 (UniProt Q96CM8) 0.282
AASDH (UniProt Q4L235) 0.113
ABCA8 isoform 3 (UniProt O94911) 0.145

These targets were tested with C/C(=N\NC(=O)C1=CC(=CC=C1)S(=O)(=O)N2CCOCC2)/C3=C(C=CC(=C3)Cl)O in the same assay as above.
Method in brief: as §1

log2 fold change, inactive:
ACTB, A0A2R8YEA7 0.034
ACAA2 (UniProt K7ER88) 0.2
A2ML1 (UniProt A8K2U0) -0.061
ABCB1 (UniProt P08183) -0.476
ACTG1 (UniProt K7EM38) -0.21
ADAMTS13 (UniProt Q76LX8) -0.078
AARSD1 (UniProt Q9BTE6) -0.415
ACOT7 (UniProt K7EKP8) -0.176
ABCB4 (UniProt P21439) -0.069
ABHD5 (UniProt Q8WTS1) 0.024
ACAD10 isoform 5 (UniProt Q6JQN1) 0.071
ACAT1, A0A5F9ZHJ0 0.034
ABITRAM (UniProt Q9NX38) 0.084
ABCF1 (UniProt Q5STZ8) 0.075

What follows are targets tested with C1=CC(=C(C=C1Cl)C2=NC3=NC=CN=C3C(=N2)NC4=CC=NC=C4)F in the same assay as above.
Method in brief: as §1

log2 fold change, inactive:
ACAA2 (UniProt K7ER88) 0.13
ABHD4 (UniProt Q8TB40) -0.316
ACTG1 (UniProt K7EM38) 0.157
ADAMTS13 (UniProt Q76LX8) 0.192
ADAM8 (UniProt P78325) 0
ACCS (UniProt Q96QU6) 0.01
ADCK1 (UniProt Q86TW2) -0.033
ACAT1, A0A5F9ZHJ0 0.148
ABL2 (UniProt P42684) -0.194
ABAT (UniProt P80404) 0.108
AACS (UniProt Q86V21) -0.176
ACSL6 isoform 1 (UniProt Q9UKU0) 0.02
ABITRAM (UniProt Q9NX38) 0.029
AASDH (UniProt Q4L235) 0.037

What follows are targets tested with C1=CC(=CC=C1C2=NC3=C(N2)C=C(C=C3)C(=O)N)OC4=CC=C(C=C4)Cl in the same assay as above.
Method in brief: as §1

log2 fold change, inactive:
ACTB, A0A2R8YEA7 -0.01
ACTR3B (UniProt Q9P1U1) 0.073
ADAD1 (UniProt Q96M93) 0.01
A2ML1 (UniProt A8K2U0) -0.133
ABHD4 (UniProt Q8TB40) -0.247
ADAM8 (UniProt P78325) 0.002
ACTC1 (UniProt P68032) 0.015
AARSD1 (UniProt Q9BTE6) 0.054
ACCS (UniProt Q96QU6) -0.038
ABCB4 (UniProt P21439) 0.046
ADCK1 (UniProt Q86TW2) 0.062
ABHD5 (UniProt Q8WTS1) -0.083
ACAD10 isoform 5 (UniProt Q6JQN1) -0.099
ABHD3 (UniProt Q8WU67) -0.127
ACTB (UniProt E7EVS6) -0.228
ABCB5 (UniProt Q2M3G0) 0.005
ACTG1 (UniProt I3L4N8) -0.2
ACYP2 (UniProt P14621) 0.017
ACSL6 isoform 1 (UniProt Q9UKU0) 0.025
ACSF2 isoform 2 (UniProt Q96CM8) -0.163
AASDH (UniProt Q4L235) 0.048
ABCA8 isoform 3 (UniProt O94911) -0.075
